These are literature values, as cited in article PMC10716778 (The Journal of Biological Chemistry, 2023).

The term MIC denotes the least concentration at which growth counts as inhibited.

Bounds are passed on as bounds.

This data set deals with K. pneumoniae clinical isolates containing KPC-2. As to conditions: K. pneumoniae clinical isolate containing KPC-2; cited from earlier work.

As for `C[C@@H](O)[C@H]1C(=O)N2C(C(=O)O)=C(S[C@@H]3CN[C@H](C(=O)N(C)C)C3)[C@H](C)[C@H]12` [Meropenem], the MIC was above 32 µg/mL.
